Measured values: US11759444B2, “Methods for cancer and immunotherapy using prodrugs of glutamine analogs” (The Johns Hopkins University, priority 2015, dated 2023)
Some entries share one result that the patent states for a list of compounds. At least one compound was matched to its structure with a doubt left.

Tests used:
[1] = In vitro plasma stability, monkey plasma; settings: 60 min incubation
[2] = In vitro plasma stability, human plasma; settings: 60 min incubation

| prodrug remaining in monkey plasma [1] | prodrug remaining in human plasma [2] | Compound |
| --- | --- | --- |
| 60-75% | 80-90% | CC(C)OC(=O)[C@H](CCC(=O)C=[N+]=[N-])NC(=O)O[C@H](C)OC(=O)C(C)(C)C (single isomer, unassigned) [Compound 14b] |
| 60-75% | 80-90% | CCOC(=O)[C@H](CCC(=O)C=[N+]=[N-])NC(=O)OC(C)OC(=O)C(C)(C)C (stereo partly shown) [Compound 5b] |
